The list shows only some results of the screen, not a fair sample: it gathers tests that were run many times, whatever their T/C, doses with no T/C, and many T/C values between a quarter and a half above the control. Further doses and runs are listed elsewhere. T/C is the treated group as % of the vehicle group. Some doses have a count of surviving animals in place of a T/C: the source holds a T/C of zero for them, seemingly a mark for toxic or unscored doses. Some survivor counts are full or nearly so, which does not show that the dose was tolerated: the source hardly ever lists a survival T/C far under the control, and the zero likely stands for such cases as well. Counts of survivors are from the toxicity check (mostly the fifth day) where no day follows; animals may have died later. Schedule codes are those of the source, read here as Q, the interval in days (D) or hours (H), X, the number of doses. For survival time, this PubChem deposit counts one and a half times the control or more as active, and values a quarter to a half above the control carry no call in these data; other NCI protocols may use other cut-offs. Some T/C values are followed by the survivors on the day toxicity was checked, most often the fifth; without a count, all were alive then. Some entries were tested several times; the values are given in rising order.
Tested on: BDF1 mice, B16 melanoma s.c., survival/tumor T/C
Assay: NCI In Vivo Anticancer Drug Screen. Data for tumor model B16 Melanoma (subcutaneous) in B6D2F1 (BDF1) mice
Settings: T/C endpoint: median survival time, higher T/C = longer survival
Method: The antitumor activity of compounds was measured in mice bearing transplantable tumors. Survival or tumor size were measured and the results are expressed as the measurement made in the treated group (T) divided by the measurement made in the vehicle treated control group (C). The tumor model used in this assay is B16 Melanoma (subcutaneous) in B6D2F1 (BDF1) mice

[1] = dose: 5.0 mg/kg/injection, schedule: Q01DX009 (ip), vehicle: saline with Tween-80
[2] = dose: 40.0 mg/kg/injection, schedule: Q01DX009 (ip), vehicle: saline
[3] = dose: 0.5 mg/kg/injection, schedule: Q01DX009 (ip), vehicle: water
[4] = dose: 1.0 mg/kg/injection, schedule: Q01DX009 (ip), vehicle: water
[5] = dose: 2.0 mg/kg/injection, schedule: Q01DX009 (ip), vehicle: saline
[6] = dose: 4.0 mg/kg/injection, schedule: Q01DX009 (ip), vehicle: saline
[7] = dose: 8.0 mg/kg/injection, schedule: Q01DX009 (ip), vehicle: saline
[8] = dose: 16.0 mg/kg/injection, schedule: Q01DX009 (ip), vehicle: saline
[9] = dose: 32.0 mg/kg/injection, schedule: Q01DX009 (ip), vehicle: saline
[10] = dose: 64.0 mg/kg/injection, schedule: Q01DX009 (ip), vehicle: saline

O=c1[nH]cc(F)c(=O)[nH]1
T/C [1]: 137 % of control | survivor count [1]: 6 of 6 | T/C (dose: 10.0 mg/kg/injection, schedule: Q01DX009 (ip), vehicle: saline, evaluated on day 5): 90 % of control | T/C (dose: 10.0 mg/kg/injection, schedule: Q01DX009 (ip), vehicle: saline, evaluated on day 60): 96, 98, 147 % of control [5 of 6 alive] | survivor count (dose: 10.0 mg/kg/injection, schedule: Q01DX009 (ip), vehicle: saline): 5 of 6 | survivor count (dose: 20.0 mg/kg/injection, schedule: Q01DX009 (ip), vehicle: saline with Tween-80): 6 of 6 | T/C (dose: 20.0 mg/kg/injection, schedule: Q01DX009 (ip), vehicle: saline, evaluated on day 5): 93 % of control | T/C (dose: 20.0 mg/kg/injection, schedule: Q01DX009 (ip), vehicle: saline, evaluated on day 60): 96, 107, 108, 141 % of control | survivor count (dose: 25.0 mg/kg/injection, schedule: Q04DX003 (ip), vehicle: saline): 6 of 6 | survivor count (dose: 37.0 mg/kg/injection, schedule: Q01DX009 (ip), vehicle: saline): 10 of 10 | survivor count (dose: 40.0 mg/kg/injection, schedule: Q01DX009 (ip), vehicle: Klucel (hydroxypropylcellulose) (HPC)): 6 of 6 | T/C [2]: 86 and 87 % of control | survivor count [2]: 6 of 6 | survivor count (dose: 65.0 mg/kg/injection, schedule: Q01DX009 (ip), vehicle: saline): 10 of 10 | survivor count (dose: 180.0 mg/kg/injection, schedule: Q04DX003 (ip), vehicle: saline): 10 of 10

CC(=O)NNC(=O)c1ccccn1
survivor count (dose: 25.0 mg/kg/injection, schedule: Q01DX009 (ip), vehicle: Klucel (hydroxypropylcellulose) (HPC)): 10 of 10 | survivor count (dose: 200.0 mg/kg/injection, schedule: Q01DX009 (ip), vehicle: Klucel (hydroxypropylcellulose) (HPC)): 6 of 10 | survivor count (dose: 400.0 mg/kg/injection, schedule: Q01DX009 (ip), vehicle: Klucel (hydroxypropylcellulose) (HPC)): 2 of 10

CO[C@H](C(=O)[C@@H](O)[C@@H](C)O)[C@@H]1Cc2cc3cc(OC4CC(OC5CC(O)C(O)C(C)O5)C(O)C(C)O4)c(C)c(O)c3c(O)c2C(=O)[C@H]1OC1CC(OC2CC(OC3CC(C)(O)C(O)C(C)O3)C(O)C(C)O2)C(O)C(C)O1 (stereo partly specified)
survivor count (dose: 0.12 mg/kg/injection, schedule: Q01DX009 (ip), vehicle: water): 9 of 10 | survivor count (dose: 0.25 mg/kg/injection, schedule: Q01DX009 (ip), vehicle: water): 4 of 10 | survivor count [3]: 1 of 10 | survivor count [4]: 4 of 10 | survivor count [5]: 2 of 10 | survivor count (dose: 2.0 mg/kg/injection, schedule: Q01DX009 (ip), vehicle: water): 2 of 10

O=CC(NC(=O)N(CCCl)N=O)C(O)C(O)C(O)CO (stereo unspecified)
T/C [5]: 125 % of control | survivor count (dose: 30.0 mg/kg/injection, schedule: Q01DX001 (ip), vehicle: saline): 12 of 12 | survivor count (dose: 45.0 mg/kg/injection, schedule: Q01DX001 (ip), vehicle: saline): 12 of 12 | survivor count (dose: 67.0 mg/kg/injection, schedule: Q01DX001 (ip), vehicle: saline): 9 of 12

Cc1c(N)nc([C@H](CC(N)=O)NC[C@H](N)C(N)=O)nc1C(=O)N[C@H](C(=O)N[C@H](C)[C@@H](O)CC(=O)N[C@H](C(=O)NC(O[C@@H]1O[C@@H](C)[C@@H](N)[C@@H](O)[C@H]1O)C(O)c1nc(-c2nc(C(=O)NCCCCN)cs2)cs1)[C@@H](C)O)[C@@H](O[C@@H]1O[C@@H](CO)[C@@H](O)[C@H](O)[C@@H]1O[C@H]1O[C@H](CO)[C@@H](O)[C@H](OC(N)=O)[C@@H]1O)c1c[nH]cn1 (stereo partly specified)
T/C [3]: 141 % of control | T/C [4]: 134 % of control | survivor count (dose: 4.0 mg/kg/injection, schedule: Q01DX009 (ip), vehicle: water): 9 of 10

Nc1nc([Se])c2ncn(C3OC(CO)C(O)C3O)c2n1 (stereo unspecified)
T/C (dose: 1.0 mg/kg/injection, schedule: Q01DX009 (ip), vehicle: saline): 148 % of control | T/C [6]: 128 % of control | T/C [7]: 141 % of control | T/C [8]: 130 % of control | T/C [9]: 128 [9 of 10 alive] and 131 % of control | T/C [10]: 132 % of control [8 of 10 alive] | survivor count [10]: 8 of 10

C[C@@H]1CC[C@@]2(NC1)O[C@H]1C[C@H]3[C@@H]4CC=C5C[C@@H](O)CC[C@]5(C)[C@H]4CC[C@]3(C)[C@H]1[C@@H]2C
T/C (dose: 3.13 mg/kg/injection, schedule: Q01DX009 (ip), vehicle: Klucel (hydroxypropylcellulose) (HPC)): 140 % of control

CCCCC[C@H](O)/C=C/[C@H]1[C@H](O)CC(=O)[C@@H]1C/C=C\CCCC(=O)O
survivor count (dose: 1.5 mg/kg/injection, schedule: Q04DX002 (ip), vehicle: Klucel (hydroxypropylcellulose) (HPC)): 3 of 3 | survivor count (dose: 12.0 mg/kg/injection, schedule: Q04DX002 (ip), vehicle: Klucel (hydroxypropylcellulose) (HPC)): 3 of 3 | T/C (dose: 24.0 mg/kg/injection, schedule: Q04DX002 (ip), vehicle: Klucel (hydroxypropylcellulose) (HPC)): 131 % of control | survivor count (dose: 25.0 mg/kg/injection, schedule: Q04DX002 (ip), vehicle: saline with Tween-80): 2 of 3 | survivor count (dose: 50.0 mg/kg/injection, schedule: Q04DX002 (ip), vehicle: saline with Tween-80): 2 of 3 | survivor count (dose: 100.0 mg/kg/injection, schedule: Q04DX002 (ip), vehicle: saline with Tween-80): 0 of 3

C[n+]1c2ccccc2c(Nc2ccc(NS(=O)(=O)CCCCN=C(N)N)cc2)c2ccc(N)cc21
T/C (dose: 0.75 mg/kg/injection, schedule: Q01DX009 (sc), vehicle: saline): 136 % of control | survivor count (dose: 12.0 mg/kg/injection, schedule: Q01DX009 (sc), vehicle: saline): 10 of 10

CCC1=C(C[C@H]2NCCc3cc(OC)c(OC)cc32)C[C@H]2c3cc(OC)c(OC)cc3CCN2C1
survivor count (dose: 32.0 mg/kg/injection, schedule: Q01DX005 (ip), vehicle: saline): 8 of 10

CC1(C)N=C(N)N=C(N)N1c1ccc(CCCCc2cccc(S(=O)(=O)F)c2)c(Cl)c1
survivor count [7]: 6 of 6 | survivor count (dose: 27.0 mg/kg/injection, schedule: Q01DX009 (ip), vehicle: saline): 6 of 6 | survivor count [2]: 2 of 6

COc1cc2c(c(OC)c1OC)-c1cc3c(cc1[C@@H](OC(C)=O)[C@@H]1COC(=O)[C@H]1C2)OCO3
survivor count (dose: 2.5 mg/kg/injection, schedule: Q01DX009 (ip), vehicle: Klucel (hydroxypropylcellulose) (HPC)): 10 of 10

N[C@H](C(=O)O)[C@@H]1CC(Cl)=NO1
T/C [6]: 127 % of control | survivor count [7]: 9 of 10 | survivor count [8]: 10 of 10 | survivor count [9]: 10 of 10
